Source: PMC10762002
Numbering of substitutions follows the chain as printed. Results are given in words; binding and its absence hold for the method and conditions named. In cells and extracts the contact can be indirect. Some binding calls cover weakened binding; strength is not graded here. For part of these data: Where a sequence is shown, tags or fusion partners need not be part of it.

How the values were obtained:
[1] = molecular target: T1, endogenous Perilipin 1 (Plin1) (mouse (endogenous in WAT and 3T3-L1)) (UniProt Q8CGN5); assay: co-IP; total LD-associated proteins of mouse WAT (aP2-ApoL6 TG or WT; fasted or fed mice for Plin1-HSL); IP with Myc, Plin1 or ApoL6 antibody, immunoblot
T1 sequence: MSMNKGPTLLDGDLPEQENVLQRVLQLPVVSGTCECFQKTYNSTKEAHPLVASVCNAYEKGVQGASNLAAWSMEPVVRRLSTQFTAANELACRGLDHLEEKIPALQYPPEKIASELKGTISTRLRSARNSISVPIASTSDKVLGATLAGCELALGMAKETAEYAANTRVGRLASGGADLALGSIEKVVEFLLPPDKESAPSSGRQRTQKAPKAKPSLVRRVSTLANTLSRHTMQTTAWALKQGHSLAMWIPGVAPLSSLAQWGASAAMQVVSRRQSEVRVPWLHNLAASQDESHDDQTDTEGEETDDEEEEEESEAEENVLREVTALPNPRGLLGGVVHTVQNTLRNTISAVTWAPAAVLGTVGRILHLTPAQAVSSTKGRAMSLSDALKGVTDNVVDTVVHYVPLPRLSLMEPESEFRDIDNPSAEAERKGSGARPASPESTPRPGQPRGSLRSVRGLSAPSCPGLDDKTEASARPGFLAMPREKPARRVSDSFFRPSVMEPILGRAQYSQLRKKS

[2] = molecular target: T1, endogenous Perilipin 1 (Plin1) (mouse (endogenous in WAT and 3T3-L1)); assay: co-IP; sequential IP of cross-linked lysates: first HA beads, glycine elution, then HSL or Plin1 antibody; native PAGE; immunoblot with HA antibody, MS of the high molecular weight band
[3] = molecular target: T1, endogenous Perilipin 1 (Plin1) (mouse (endogenous in WAT and 3T3-L1)); assay: co-IP; differentiated 3T3-L1 adipocytes with Dox-inducible F-ApoL6-HA or N-ApoL6-HA, basal or stimulated, with or without Dox; 1% Triton X-100, 150 mM NaCl, 10% glycerol, 25 mM Tris pH 7.4; IP with Plin1 antibody at 4 C overnight, immunoblot with HSL antibody
[4] = molecular target: T2, Myc-tagged Plin1SD (UniProt Q8CGN5); assay: co-IP; 293 FT cells co-transfected with Myc-tagged Plin1 or Plin1SD and HA tagged ApoL6 and/or HSL (basal condition); IP with Myc antibody, immunoblot with HA or HSL antibody
T2 sequence: T1 sequence with S81D, S222D, S276D

[5] = molecular target: T3, Myc-tagged full-length Plin1 (F-Plin1) (UniProt Q8CGN5); assay: as above
T3 sequence: T1 sequence

[6] = molecular target: T4, Plin1 expressed in HEK293 cells (UniProt Q8CGN5); assay: co-IP; HEK293 cells co-transfected with Plin1 and HSL and infected with Dox-inducible lentiviral F-ApoL6-HA or N-ApoL6-HA, stimulated condition, with or without Dox; IP with Plin1 antibody, immunoblot with HSL antibody
T4 sequence: T1 sequence

Measured: binding

B1: endogenous hormone-sensitive lipase (HSL) (enzyme, UniProt P54310 1-759)
chain: MDLRTMTQSLVTLAEDNMAFFSSQGPGETARRLSNVFAGVREQALGLEPTLGQLLGVAHHFDLDTETPANGYRSLVHTARCCLAHLLHKSRYVASNRKSIFFRASHNLAELEAYLAALTQLRAMAYYAQRLLTINRPGVLFFEGDEGLTADFLQEYVTLHKGCFYGRCLGFQFTPAIRPFLQTLSIGLVSFGEHYKRNETGLSVTASSLFTGGRFAIDPELRGAEFERIIQNLDVHFWKAFWNITEIEVLSSLANMASTTVRVSRLLSLPPEAFEMPLTSDPRLTVTISPPLAHTGPAPVLARLISYDLREGQDSKVLNSLAKSEGPRLELRPRPHQAPRSRALVVHIHGGGFVAQTSKSHEPYLKNWAQELGVPIFSIDYSLAPEAPFPRALEECFFAYCWAVKHCDLLGSTGERICLAGDSAGGNLCITVSLRAAAYGVRVPDGIMAAYPVTTLQSSASPSRLLSLMDPLLPLSVLSKCVSAYSGTEAEDHFDSDQKALGVMGLVQRDTSLFLRDLRLGASSWLNSFLELSGRKPQKTTSPTAESVRPTESMRRSVSEAALAQPEGLLGTDTLKKLTIKDLSNSEPSDSPEMSQSMETLGPSTPSDVNFFLRPGNSQEEAEAKDEVRPMDGVPRVRAAFPEGFHPRRSSQGVLHMPLYTSPIVKNPFMSPLLAPDSMLKTLPPVHLVACALDPMLDDSVMFARRLRDLGQPVTLKVVEDLPHGFLSLAALCRETRQATEFCVQRIRLILTPPAAPLN
binds: [1] | [2] | [3]

B2: HSL expressed in HEK293 / 293 FT cells (enzyme, UniProt P54310 1-759)
chain: B1 chain
binds: [4] | [5] | [6]
